# Assay results as given in PubChem BioAssay AID1487 (National Center for Advancing Translational Sciences (NCATS), 2009).
# This is one part of the list. Further columns of the screen follow, without active or inactive calls. The list favours compounds with an active or inconclusive main result. Potencies come from curve fits of mixed quality, noted in brackets.
# Test: qHTS Assay for Modulators of Lamin A Splicing
# Settings: HeLa LMNA splicing GFP/RFP minigene ratio, 48 h
# Procedure, shortened: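 Read-out is the ratio of GFP to DsRed2 object intensity, acquired by 488 nm laser-scanning cytometry on HeLa lamin A-EGFP minigene reporter cells. Compound incubation 48 hrs at 37 °C in Opti-MEM with 2% FBS; DMSO 0.5% final.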
# [1] = measured here: GFP splicing reporter channel
# [2] = measured here: RFP viability control channel
Compound,AC50 [1],AC50 [2]
Cc1ccccc1CSc1nc2c([nH]c3ccccc32)c(=O)n1-c1ccccc1,"14.1 µM [falling, partial curve, poor fit]","25.1 µM [falling, partial curve, poor fit]"
CC1=C(C(=O)OCC2CCCO2)C(c2coc3ccccc3c2=O)C2=C(CCCC2=O)N1 (configuration not stated),,"0.02 µM [falling, full curve, poor fit]"
CCOc1ccc(NS(=O)(=O)c2ccc(C(=O)N3CCN(c4ncccn4)CC3)cc2)cc1,"0.00501 µM [rising, full curve, poor fit]","0.00501 µM [rising, full curve, poor fit]"
CCC(c1nnnn1Cc1ccccc1)N1CCN(c2ccccc2)CC1 (configuration not stated),"10 µM [falling, partial curve, poor fit]","20 µM [falling, partial curve]"
CO/N=C/CC(=O)c1ccc(-c2ccccc2)cc1,"11.2 µM [falling, partial curve]","11.2 µM [falling, single point]"
Cc1ccc(C(=O)N2CCN(c3ccccc3)CC2)cc1NC(=O)c1nsc2ccccc12,"1.12 µM [rising, partial curve]",
Cc1cccc(NC(=O)/C(=C\c2ccc([N+](=O)[O-])o2)NC(=O)c2ccc(Cl)cc2)c1,"12.6 µM [rising, single point]","20 µM [rising, partial curve, poor fit]"
O=C(Nc1nnc(C2=COCCO2)o1)c1ccc(S(=O)(=O)N2CCCC2)cc1,"0.00316 µM [rising, full curve, poor fit]",
CCCc1nc2ccccc2c(=O)n1/N=C/c1ccccc1O,"35.5 µM [rising, single point]","28.2 µM [rising, single point]"
COc1cccc(-c2nn(-c3ccccc3)cc2C(=O)OCC(=O)Nc2ncc(Cl)cc2Cl)c1,,"5.01 µM [rising, partial curve]"
Cc1cccc(-c2nnc(SCC(=O)Nc3ccc(C)c(C)c3)o2)c1,,"1.78 µM [falling, partial curve]"
CC(=O)c1c(C)[nH]c(C(=O)CSc2nnc(-c3ccco3)n2Cc2ccccc2)c1C,"7.94 µM [rising, partial curve]","10 µM [rising, partial curve]"
COCCCNC(=O)CCCn1c(=O)c2ccccc2n(CC(=O)Nc2c(C)cc(C)cc2C)c1=O,"0.0224 µM [falling, full curve, poor fit]",
Cc1cc(C)c(Cn2cnc(-c3ccc([N+](=O)[O-])cc3)c2)c(C)c1,"3.55 µM [falling, full curve, poor fit]",
Cc1ccc(CNC(=O)CN2C(=O)C3CCCCN3c3ccc(C(=O)N(C)C)cc32)cc1 (configuration not stated),,"0.00501 µM [falling, full curve, poor fit]"
Cc1ccc(C)c(NC2=CC(=O)CC(C)(C)C2)c1C#N,"22.4 µM [rising, single point]",
CCCCCc1nc2c(C#N)c(-c3ccc(Cl)cc3)ccn2n1,,"28.2 µM [falling, partial curve]"

# Rewritten bar-delimited: entries from further up
Compound | AC50 [1] | AC50 [2]
Cc1cc(C)c(Cn2cnc(-c3ccc([N+](=O)[O-])cc3)c2)c(C)c1 | 3.55 µM [falling, full curve, poor fit] | 
Cc1ccc(CNC(=O)CN2C(=O)C3CCCCN3c3ccc(C(=O)N(C)C)cc32)cc1 (configuration not stated) |  | 0.00501 µM [falling, full curve, poor fit]

# Continued:

Compound,AC50 [1],AC50 [2]
O=C(CSc1nc2ccccc2[nH]1)Nc1ccc2c(c1)CCC2,,"12.6 µM [rising, single point]"
O=C(O)/C=C/C(=O)NC1CCS(=O)(=O)C1 (configuration not stated),"3.98 µM [falling, full curve, poor fit]","1.58 µM [falling, full curve, poor fit]"
COC1(OC)N=C(N)C2(C#N)C(c3ccccc3)NC(C)=CC12C#N (configuration not stated),"0.0112 µM [rising, full curve]",
CCOC(=O)c1csc(NC(=O)c2ccc(OCC)cc2)n1,"2.82 µM [falling, partial curve, poor fit]",
COc1ccccc1NC(=O)C1=C(C)Nc2nnnn2C1c1cccc(Br)c1 (configuration not stated),"17.8 µM [falling, single point]","20 µM [falling, single point]"
Cc1cc(F)ccc1NC(=O)C1CCCO1 (configuration not stated),,"1.12 µM [falling, partial curve, poor fit]"
CCCOc1ccc(CNC(=O)CCCN2C(=O)CSc3c2c(C)nn3-c2ccccc2)cc1,"20 µM [falling, partial curve, poor fit]","0.282 µM [falling, partial curve, poor fit]"
CCOc1ccc(-n2c(-c3ccccc3)c[n+]3c2CCCCC3)cc1,"2.24 µM [rising, partial curve]","3.55 µM [rising, partial curve]"
COC(=O)/C=C1\N/C(=N\c2nc(C)cc(C)n2)N(c2ccc(C)cc2)C1=O,,"10 µM [rising, partial curve, poor fit]"
N#Cc1cccc(NC(=O)C2CCN(S(=O)(=O)c3ccc4c(c3)CCCN4C(=O)C3CCC3)CC2)c1,"1.12 µM [rising, full curve]",
CCOC(=O)c1ccc(N2C(=O)c3n[nH]c(-c4ccco4)c3C2c2cccc([N+](=O)[O-])c2)cc1 (configuration not stated),,"20 µM [rising, partial curve, poor fit]"
Cc1cc(N(C)C)c(C#N)c(NCc2ccccc2)n1,,"0.01 µM [falling, full curve, poor fit]"
CCC1=NN=C(c2ccc(F)cc2)C(c2c[nH]c3ccccc23)N1O (configuration not stated),"35.5 µM [falling, single point]",
CCCn1c2c(c(O)c(C(=O)Nc3ccc(OCC)cc3)c1=O)CCCC2,,"35.5 µM [falling, partial curve, poor fit]"
Cc1ccc2nc(N(CCCN(C)C)C(=O)c3cc4ccccc4oc3=O)sc2c1,"4.47 µM [rising, full curve, poor fit]",
O=C(COc1ccc(Cl)cc1)Nc1cccc(-c2ccc3nncn3n2)c1,"0.0224 µM [falling, partial curve, poor fit]","0.01 µM [falling, full curve, poor fit]"
Cc1cc(C)c(OCCCON2C(=O)CCC2=O)c(Br)c1,"0.631 µM [rising, full curve, poor fit]","0.158 µM [rising, full curve, poor fit]"
